Laboratory results from patent publication US20030203415A1 (published 2003).
These are yes or no findings as the source states them, for the method shown. Some binding calls cover weakened binding; strength is not graded here.

What was measured:
H6NA3 [1] = biological target: T1, H6NA3 (UniProt P06731 35-144; P06731 499-590, limits assumed); test: phage ELISA on dried H6NA3 plate
T1 construct: domain: N domain;domain: A3 domain; recombinant truncated target
T1 sequence: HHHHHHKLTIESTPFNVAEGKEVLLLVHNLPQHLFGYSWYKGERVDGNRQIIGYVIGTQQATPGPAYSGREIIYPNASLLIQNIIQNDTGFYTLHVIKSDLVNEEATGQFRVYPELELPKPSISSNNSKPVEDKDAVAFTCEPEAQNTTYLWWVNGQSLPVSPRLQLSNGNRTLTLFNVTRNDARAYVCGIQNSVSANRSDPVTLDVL

H6NA3 [2] = biological target: T1, H6NA3; test: phage ELISA, varying amounts of NA3 per well
H6NA3 [3] = biological target: T1, H6NA3; test: phage ELISA on NA3
H6NA3 [4] = biological target: T1, H6NA3; test: phage ELISA on H6NA3

Row | Binder | binding (H6NA3 [3]) | further results
1 | NWVCNLFKNQWFCNSY (also called TN10/9 Isolate G08) [FX-G08] |  | binding (H6NA3 [1]): binds; binding (H6NA3 [2]): binds
2 | DWVCENKKDQWTCNLL [AB-A07] |  | binding (H6NA3 [1]): binds; binding (H6NA3 [2]): binds
3 | NWDCMFGAEGWACSPW [TN10/9-E01] |  | binding (H6NA3 [1]): binds
4 | DWVCEYFKNQWFCNVL [304A-12-H12] | binds | binding (H6NA3 [2]): binds
5 | NWFCEMIGRQWGCVPS [TN10/9-F11] |  | binding (H6NA3 [1]): binds
6 | DWVCELVKAQWYCNIL [304A-13-H07] | binds | 
7 | NWVCNLFKNQWFCDTV [304A-13-G08] | binds | 
8 | DWVCEFYKSQWNCNIL [304A-13-C09] | binds | 
9 | DWVCEWFKPQWFCNPL [304A-13-A10] | binds | 
10 | DWYCNLFKNQWFCDVL [304A-13-C10] | binds | 
11 | DWVCEYNDEQWTCNLL [304A-13-A11] | binds | 
12 | DWVCNWELFQWTCNLL [304A-14-C01] | binds | 
13 | DWVCNLFKNQWFCDQV [304A-14-A02] | binds | 
14 | DWVCNLFKNQWFCDVP [304A-14-B02] | binds | binding (H6NA3 [2]): binds
15 | DWVCNFDQGLAHCFPS [TN10/9-D04] |  | binding (H6NA3 [1]): binds
16 | DWVCEFFKQQWFCNVL [304A-14-G02] | binds | 
17 | DWVCEFFKDQWSCNVL [304A-14-H02] | binds | 
18 | DWVCNLFKNQWFCDSL [304A-14-A03] | binds | 

Row | Binder | binding (H6NA3 [3]) | further results
19 | DWVCEFMKHQWFCNPL [304A-14-H03] | binds | 
20 | DWICNLFKNQWFCQAV [304A-14-B06] | binds | 
21 | DWVCEFIKNQWMCNVL [304A-14-H08] | binds | 
22 | DWVCNLFKNQWFCDAL [304A-14-A10] | binds | 
23 | DWVCEYEKDQWSCNIL [304A-14-F10] | binds | 
24 | DWVCNLFKNQWFCDTL [304A-14-A12] | binds | binding (H6NA3 [2]): binds
25 | DWYCNLFKNQWFCDVY [304A-15-E01] | binds | 
26 | DWVCEFFKKQWFCNLL [304A-15-A02] | binds | 
27 | DWICNLFKNQWFCQQH [304A-15-C03] | binds | 
28 | DWVCEMFKKQWVCNPL [304A-15-C04] | binds | 
29 | DWICNLFKNQWFCGPL [304A-15-E04] | binds | binding (H6NA3 [2]): binds
30 | DWVCEVIKDQWVCNPL [304A-15-A05] | binds | 
31 | NWVCNLFKNQWFCEWA [304A-15-A07] | binds | 
32 | NWVCDYWKPQWFCNSY [304A-15-B07] | binds | 
33 | DWVCEWSKMQWSCNAL [304A-15-B08] | binds | 
34 | NWRCKLFPRYPYCSSW (also called TN10/9 Isolate G01) [G01] |  | binding (H6NA3 [4]): no binding
35 | RYCEFFPWSLHCGRP (also called TN10/9 Isolate B10) [B10] |  | binding (H6NA3 [4]): no binding

More lines, main results first:

Row | binding (H6NA3 [3]) | Binder | further results
36 | binds | DWFCNLFKNQWFCSPI [304A-15-G01] | 
37 | binds | NWVCDVLKWQWPCNSY [304A-15-F02] | 
38 | binds | DWVCEYDKGQWHCNIL [304A-15-G02] | 
39 | binds | DWVCNWLWGQWTCNLL [304A-15-H03] | 
40 | binds | DWVCENKNFKWFCNLL [304A-15-E05] | 
41 | binds | DWVCEYAKNQWNCNPL [304A-15-G06] | 
42 | binds | DWYCNLFKNQWFCDLV [304A-15-E07] | 
43 | binds | NWVCNLFKNQWFCDEM [304A-15-G07] | 
44 | binds | DWVCELFKPQWFCNIL [304A-15-H07] | 
45 | binds | DWVCDYKFFQWTCNLL [304A-15-F08] | 
46 | binds | NWVCEWLKPQWWCNSY [304A-15-G08] | 
47 | binds | DWVCEFFKPQWMCNIL [304A-15-H09] | 
48 | binds | DWVCEYFKSQWMCNML [304A-15-G11] | 
49 | binds | DWVCEFFGMQWTCNLL [304A-15-F12] | 
50 | binds | DWVCEYAKFQWICNIL [304A-15-H12] | 
